PubChem BioAssay AID2551 (National Center for Advancing Translational Sciences (NCATS), 2010)
Hit rate of the full screen: of about 310,000 compounds, about 17,000 (5.5%) were called active. Inconclusive results, whose numbers are uncertain, are shown with a selection of clear calls. Calls come from the whole dose curve; as a rule, active = well fitted inhibition curve with a large enough effect; inconclusive = small, poorly fitted or top-dose-only effect, or effect the other way; inactive = no such curve, though single readings can be large or run the other way. A potency beside an inconclusive call is a rough fit, not a confirmed value.

Amino acid sequences for entries named in this document (tags omitted). A change or cut given only in a name is not applied to a line headed by its entry.
UniProt P51450: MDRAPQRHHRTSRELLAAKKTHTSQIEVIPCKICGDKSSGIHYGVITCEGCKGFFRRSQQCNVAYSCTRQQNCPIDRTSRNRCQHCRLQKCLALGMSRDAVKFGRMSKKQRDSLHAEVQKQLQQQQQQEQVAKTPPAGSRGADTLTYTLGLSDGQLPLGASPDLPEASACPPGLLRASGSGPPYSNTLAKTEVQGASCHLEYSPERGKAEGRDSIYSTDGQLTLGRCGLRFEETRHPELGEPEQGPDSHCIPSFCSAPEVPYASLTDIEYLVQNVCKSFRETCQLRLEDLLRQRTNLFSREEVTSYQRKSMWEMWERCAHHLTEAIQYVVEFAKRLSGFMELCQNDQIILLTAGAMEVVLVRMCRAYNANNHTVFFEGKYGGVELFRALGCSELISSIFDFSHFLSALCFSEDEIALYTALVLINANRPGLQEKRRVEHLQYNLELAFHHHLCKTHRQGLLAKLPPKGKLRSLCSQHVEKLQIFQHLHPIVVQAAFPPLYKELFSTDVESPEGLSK

The molecules below were run against Nuclear receptor ROR-gamma (Mus musculus) (UniProt P51450) (assay: qHTS for inhibitors of ROR gamma transcriptional activity). Settings: Drosophila S2 Gal4-RORgamma UAS-luciferase reporter, 20 h; activity change, negative = inhibition: at 53.6 µM (top of the series).
Summary of the method: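 Stable Schneider cell line, Gal4 DNA-binding domain fused to ROR gamma, UAS-luciferase. Cmpd 1 hr RT → CuSO4 700 uM final → 20 hr RT → luciferase reagent 10 min → luminescence.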
% is set by controls: 0 for no effect and ±100 for the full control effect; potency is the fitted concentration of half-maximal effect.
Note: nearly all actives have a fitted effect of over 60% in size.

Potency, active:
COc1ccccc1NC(=O)c1nc[nH]c1C(=O)Nc1ccccc1OC 2 µM, Cc1cccc(C(=O)Nc2sc3c(c2C#N)CCCCC3)c1 7.94 µM, CCCCn1c(=S)[nH]c2ccc(N3CCOCC3)cc2c1=O 2.24 µM, Cc1ccc2[nH]c(=O)c(NC(N)=S)nc2c1 11.2 µM, Cc1cccc(NC(=S)/N=C(\N)Nc2nc(C)c3ccccc3n2)c1 2.24 µM, Cc1csc(-c2coc3cc(O[C@@H]4O[C@H](CO)[C@@H](O)[C@@H](O)[C@H]4O)ccc3c2=O)n1 3.16 µM, COc1ccc(/C=N/Nc2nc3ccccc3c(=O)[nH]2)cc1 11.2 µM, CC(C)(C)OC(=O)NCc1ccc(CNC(=O)c2[nH]cnc2C(=O)N[C@@H](Cc2ccccc2)C(=O)OC(C)(C)C)cc1 11.2 µM, CCN(CC)CC(=O)Nc1sc2c(c1C(=O)c1ccccc1C)CCC2 7.08 µM, CN(C)c1ccc(NC(=S)NC(=O)/C=C/c2ccco2)cc1 14.1 µM, C=CCC1S/C(=N/N=C/c2cccs2)NC1=O (stereo not given) 2 µM, Cc1cc(OCCCn2ccnc2)cc(C(C)C)c1 31.6 µM, COc1cc(CNc2ccc3[nH]c(=O)[nH]c3c2)ccc1OCc1ccc(Cl)cc1 2.82 µM, CCc1ccc(/C=N/NC(=O)c2ccccn2)cc1 10 µM

Potency, inactive:
CCN(CC)CCNC(=O)CCc1nnc2ccc(N3CCC(C)CC3)nn12, COc1ccc(-c2nc(N3CCOCC3)nc3n[nH]c(N)c23)cc1, COc1ccc(C(=S)N2CCN(c3ccccc3Cl)CC2)cc1OC, Cn1cc(C=O)c2cc(S(=O)(=O)N3CCOCC3)ccc21, COc1ccc2c(c1)Cc1sc(NC(C)=O)nc1-2, Cc1ccc(N=C2NC(=O)/C(=C/c3cccn3C)S2)cc1, Cc1ccc(C(=O)NCCCNC(=O)c2ccco2)cc1, O=C(C1CC1)N1CCc2cc(S(=O)(=O)NCCCN3CCCCC3)ccc21, CCOC(=O)CSc1ccc(C(=O)NCCCN2CCOCC2)cc1[N+](=O)[O-], C/C(=N\NC(=O)c1cccs1)c1ccncc1, O=C(Nn1c(Cc2ccccc2)nc2ccccc2c1=O)c1c(O)c2cccc3c2n(c1=O)CCC3, O=C(Nc1ccc(S(=O)(=O)N2CCOCC2)cc1)c1cc([N+](=O)[O-])ccc1Cl, CCOc1ccc(NC(=O)c2cc(OC)nc3ccccc23)cc1, Cc1ccccc1C(=O)NNC(=O)c1ccncc1, COCC(COS(N)(=O)=O)Cc1ccccc1 (stereo not given), CCCC(=O)Nc1nc2ccc(NC(=O)c3ccc(Br)o3)cc2s1, Cc1cc(C)c2[nH]c(=O)c(C(c3nnnn3C(C)(C)C)N(Cc3ccco3)CC3CCCO3)cc2c1 (stereo not given), CCOC(=O)c1sc(C)c2c1NC(c1ccc(Cl)cc1)NC2=O (stereo not given), COc1ccc(OC)c(NC(=O)CS(=O)(=O)c2cn(CC(=O)N3CCOCC3)c3ccccc23)c1, Nc1ccc(Nc2nc3ccccc3[nH]2)cc1, Cc1cc(=O)[nH]c(N/N=C/c2c(C)oc3ccccc23)n1

Potency, inconclusive:
O=C(Nc1ccc(Br)cc1)c1cccc(N2C(=O)CCC2=O)c1 7.94 µM [activator, partial curve, poor fit], Cc1cc(NC(=O)c2noc3c2CCCC3)nn1Cc1ccc(Cl)cc1 17.8 µM [activator, single point], COc1ccc(C(C)=O)cc1CSc1nnc(-c2ccc(Cl)cc2)n1-c1ccccc1 35.5 µM [inhibitor, single point], COc1ccccc1/C=C/C(=O)Nc1cccnc1Cl 20 µM [activator, partial curve], O=C(NNc1nc2c(F)cccc2s1)c1ccc(F)cc1 3.98 µM [inhibitor, full curve, poor fit], CCOc1ccc(Nc2nc(Cc3nnc(SCC(=O)NCc4ccco4)n3CC)cs2)cc1 35.5 µM [inhibitor, single point], COc1cccc(C2C3=C(Nc4[nH]n(-c5ccccc5)c(=O)c42)c2ccccc2C3=O)c1 (stereo not given) 35.5 µM [activator, single point], CC(C)(C)c1ccc(S(=O)(=O)NNC(=O)c2cc3ccccc3[nH]2)cc1 14.1 µM [activator, single point], Cc1cc(NC(=O)c2ccc3c(c2)OCCO3)ccc1NC(=O)c1cc2ccccc2o1 7.08 µM [inhibitor, partial curve], COC(=O)c1ccc(C2c3c(oc4ccccc4c3=O)C(=O)N2CCCN2CCOCC2)cc1 (stereo not given) 25.1 µM [inhibitor, single point], O=C(/C=C/c1ccc(S(=O)(=O)NCc2ccco2)cc1)NCc1ccccc1Cl 11.2 µM [activator, partial curve], CCOC(=O)c1ccc(N=c2sc(C(=O)OC)cc(=O)n2CCCN2CCOCC2)cc1 22.4 µM [inhibitor, single point], Cc1cc(C(=O)N2CCN(c3ccc(C(F)(F)F)cn3)CC2)c(C)o1 10 µM [activator, partial curve], O=C(O)Cc1ccc(C(=O)c2ccccc2F)s1 3.98 µM [activator, full curve, poor fit], CCCCn1c(Cc2ccccc2)nnc1SCC(=O)N1CCOCC1 0.0447 µM [activator, full curve, poor fit], CCc1ccc(CCC(=O)Nc2nnc(CC)s2)o1 35.5 µM [inhibitor, single point], Cc1ccc(-c2c(C(=O)NNC(=S)NCC3CCCO3)csc2C)cc1 (stereo not given) 2.51 µM [inhibitor, full curve, poor fit], COc1ccc(CNC(=O)CCSc2nc(-c3ccc4c(c3)OCO4)cc(C(F)(F)F)n2)cc1 0.251 µM [activator, full curve], O=C(NCc1ccco1)c1cc2ccccc2o1 3.16 µM [activator, single point], CCOc1cccc(C2C(C(=O)c3ccc(C)o3)=C(O)C(=O)N2Cc2ccncc2)c1 (stereo not given) 35.5 µM [inhibitor, single point], O=C(c1ccc(COc2ccc(Cl)cc2Cl)o1)N1CCCC1 1.12 µM [activator, full curve, poor fit], CCc1c(C)nc(N2CCN(c3ccc(F)cc3)CC2)[nH]c1=O 35.5 µM [inhibitor, single point], O=[N+]([O-])c1c(NCc2ccco2)ccc2nonc12 6.31 µM [activator, single point], COc1ccc2[nH]cc(CCNc3nc(-c4ccc(N(C)C)cc4)nc4ccccc34)c2c1 12.6 µM [inhibitor, single point], O=C(NC1CCCCCC1)c1cc2c(=O)n3ccccc3nc2s1 2.82 µM [activator, partial curve], Cc1ccc(N2C(=O)[C@@H]3Cc4ccccc4CN3C2=O)cc1 2.82 µM [activator, full curve, poor fit], Cn1c(SCc2nc(-c3ccccc3)no2)nnc1-c1cccs1 12.6 µM [activator, partial curve], O=C(Cn1c(C(F)(F)F)nc2ccccc21)OCC(=O)c1c[nH]c2ccccc12 22.4 µM [activator, partial curve], CCOC(=O)c1sc(NC(=O)CN2C(=O)NC3(CC(C)CC(C)(C)C3)C2=O)c(C(=O)OCC)c1C (stereo not given) 17.8 µM [activator, partial curve, poor fit], CN(CC(=O)NCCN1CCOCC1)S(=O)(=O)c1ccc(F)cc1 11.2 µM [inhibitor, single point], CCOC(=O)c1ccc(NC(=S)NC2CCCC2)cc1 7.94 µM [inhibitor, single point], Cc1ccc(NC(=O)c2ccccc2)s1 0.224 µM [activator, single point], COc1cccc(CSc2nc3ccccc3cc2C=O)c1 35.5 µM [inhibitor, single point], CC(C)(C)C(=O)Nc1nc2cc3c(cc2s1)OCO3 35.5 µM [inhibitor, single point], O=C(Cc1ccccc1)Nc1cc(Cl)ccc1Sc1ccccc1 10 µM [activator, partial curve], CCOc1ccc2nc(N(Cc3ccccc3)C(=O)CCNC(C)=O)sc2c1 14.1 µM [activator, single point], Cc1sc2ncnc(Nc3ccc(N4CCOCC4)cc3)c2c1-c1ccccc1 12.6 µM [activator, partial curve], C=CCNC(=S)NC(=O)c1ccc(C)c(Br)c1 0.355 µM [inhibitor, full curve], Cc1ncccc1C(=O)N1CCCC(C(=O)c2ccc3c4c(cccc24)CC3)C1 (stereo not given) 35.5 µM [activator, single point]

Activity change, negative = inhibition, inactive:
COc1ccc(NC(=O)N(CCO)Cc2cc3c(C)cc(C)cc3[nH]c2=O)cc1 2.3% [at 10 µM]
